Test results reported in the supplement of paper PMC8256030.
Where “and” joins values, the source holds several entries; their conditions need not be identical. Equal values may be shown once. Where a name gives a salt, the structure may show the parent alone. This is one part of the list. Single values are uncertain here, since repeats match poorly.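 HEK293T cells were given each compound shortly before transfection with a reporter in which red mCherry is followed by the SARS-CoV-2 frameshift element and then GFP in the −1 frame, so GFP appears only after frameshifting.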

What follows are molecules tested on SARS-CoV-2 -1 PRF reporter mCherry-FSE-GFP(-1) (assay: percent effect, decrease of GFP/mCherry ratio (-1 PRF reporter) relative to controls; higher = stronger frameshift inhibition). Conditions: 10 µM; 24 h; HEK293T.

**Q.** How did the percent effect turn out when CSc1nc2cc(Cl)c(Oc3cccc(Cl)c3Cl)cc2[nH]1 [triclabendazole] was run?
**A.** Its percent effect is 1.24%.

**Q.** How did the percent effect turn out when C[C@H]1c2cccc(O)c2C(O)=C2C(=O)[C@]3(O)C(O)=C(C(N)=O)C(=O)[C@@H](N(C)C)[C@@H]3[C@@H](O)[C@@H]21 [Doxycycline] was run?
**A.** Its percent effect is 0.664% and -0.649%.

**Q.** CN1CCC(=C2c3ccccc3CCc3cccnc32)CC1 was tested. Which percent effect did it give?
**A.** The percent effect was -3.52%.

**Q.** Which percent effect does the source give for CN=C(N)NCCCC(N)C(=O)O (stereo not given) here?
**A.** The percent effect was 2.07%.

**Q.** With CCN(CC)CCNc1ccc(C)c2sc3ccccc3c(=O)c12 [lucanthone] as the molecule, how does the percent effect read?
**A.** The percent effect was -7.69%.

**Q.** CO[C@H]1C[C@H](O[C@@H]2/C(C)=C/C[C@@H]3C[C@@H](C[C@]4(CC[C@H](C)[C@@H](C5CCCCC5)O4)O3)OC(=O)[C@@H]3C=C(C)/C(=N/O)[C@H]4OC/C(=C\C=C\[C@@H]2C)[C@]43O)O[C@@H](C)[C@@H]1O was tested. Which percent effect did it give?
**A.** Its percent effect is 2.03%.

**Q.** With NS(=O)(=O)c1ccc(NC(=O)OCCO)cc1 [sulocarbilate] as the molecule, how does the percent effect read?
**A.** The percent effect was -1.04%.

**Q.** For O=c1[nH]cnc2c1ncn2[C@@H]1O[C@H](CO)[C@@H](O)[C@H]1O [inosine], which percent effect is on record?
**A.** The percent effect was 5.51%.

**Q.** Which percent effect does the source give for c1ccc2c(SC3=NCCN3)c[nH]c2c1 [tinazoline] here?
**A.** The percent effect was -1.03%.

**Q.** Which percent effect does the source give for Nc1c(-c2cccc(C(F)(F)F)c2)nsc1C(=O)O [amflutizole] here?
**A.** The percent effect was -2.47%.

**Q.** For C[C@H](CS)C(=O)N1CCC[C@H]1C(=O)O [captopril], which percent effect is on record?
**A.** Its percent effect is 0.369% and 1.99%.

**Q.** Which percent effect does the source give for O=C(OCCOCCN1CCCCC1)N1c2ccccc2Sc2cccnc21 [pipazetate] here?
**A.** The percent effect was 3.76%.

**Q.** CN(C)CCO/N=C(/C=C/c1ccc(O)cc1)c1ccccc1F [eplivanserin] was tested. Which percent effect did it give?
**A.** Its percent effect is -9.92%.

**Q.** With C1CCN2C[C@@H]3C[C@@H](CN4CCCC[C@@H]34)[C@H]2C1 [(-)-Sparteine] as the molecule, how does the percent effect read?
**A.** The percent effect was 2.58%.

**Q.** CCCCOCCOC(=O)c1cccnc1 [nicoboxil] was tested. Which percent effect did it give?
**A.** Its percent effect is -5.81%.

**Q.** For CCOc1ccc(Cc2nccc3cc(OCC)c(OCC)cc23)cc1OCC [ethaverine], which percent effect is on record?
**A.** The percent effect was -6.73%.

**Q.** How did the percent effect turn out when CO[C@@]1(NC(=O)CSCC#N)C(=O)N2C(C(=O)O)=C(CSc3nnnn3C)CS[C@@H]21 [Zefazone] was run?
**A.** The percent effect was -10.7%.

**Q.** Which percent effect does the source give for Cc1ccc2c(Br)cc(Br)c(OC(=O)c3ccccc3)c2n1 [broxaldine] here?
**A.** The percent effect was -0.413%.

**Q.** CC(C)[N+](C)(CCOC(=O)C1c2ccccc2Oc2ccccc21)C(C)C [propantheline bromide] was tested. Which percent effect did it give?
**A.** Its percent effect is -6.46%.

**Q.** With CC(=O)OC(C)C[N+](C)(C)C (stereo not given) [methacholine chloride] as the molecule, how does the percent effect read?
**A.** Its percent effect is -3.17%.

**Q.** For Nc1ccc(S(=O)(=O)Nc2cnc3ccccc3n2)cc1, which percent effect is on record?
**A.** The percent effect was -4.79%.

**Q.** Which percent effect does the source give for Clc1ccc(C(Cn2ccnc2)OCc2csc3c(Cl)cccc23)c(Cl)c1 (stereo not given) [sertaconazole] here?
**A.** The percent effect was -2.45%.

**Q.** How did the percent effect turn out when CC(C)c1ccc2oc3nc(N)c(C(=O)O)cc3c(=O)c2c1 [amlexanox] was run?
**A.** Its percent effect is 1.49%.

**Q.** Which percent effect does the source give for O=c1oc2ccccc2c(O)c1Cc1c(O)c2ccccc2oc1=O here?
**A.** Its percent effect is -4.91%.

**Q.** For O=C(O)[C@@H]1[C@H]2C[C@H]3c4[nH]c5ccccc5c4CCN3C[C@@H]2CC[C@@H]1O [yohimbic acid], which percent effect is on record?
**A.** Its percent effect is 3.81%.

**Q.** NCCc1cnc[nH]1 was tested. Which percent effect did it give?
**A.** Its percent effect is -4.85%.

**Q.** How did the percent effect turn out when CC[C@@H]1C(=O)OC[C@@H]1Cc1cncn1C [Pilocarpine·HCl] was run?
**A.** Its percent effect is -0.801%.

**Q.** Which percent effect does the source give for CC(C)(O/N=C(\C(=O)N[C@@H]1C(=O)N2C(C(=O)[O-])=C(C[n+]3ccccc3)CS[C@H]12)c1csc(N)n1)C(=O)O here?
**A.** Its percent effect is -4.16%.

**Q.** Which percent effect does the source give for CCN(CC)CCOC1(c2ccc(Cl)cc2)CCCCC1 [clofenciclan] here?
**A.** Its percent effect is 3.3%.

**Q.** For Cc1[nH]c2ccccc2c1C[C@@H](NC(=O)[C@@H](N)Cc1c[nH]cn1)C(=O)N[C@@H](C)C(=O)N[C@@H](Cc1c[nH]c2ccccc12)C(=O)N[C@H](Cc1ccccc1)C(=O)N[C@@H](CCCCN)C(N)=O [examorelin], which percent effect is on record?
**A.** Its percent effect is -0.624%.

**Q.** With CCN1CCC[C@H]1CNC(=O)c1c(O)c(Cl)cc(Cl)c1OC [S(-)-Raclopride] as the molecule, how does the percent effect read?
**A.** The percent effect was -3.17%.

**Q.** With CCCc1cc(=O)[nH]c(=S)[nH]1 as the molecule, how does the percent effect read?
**A.** Its percent effect is -6.52%.

**Q.** How did the percent effect turn out when Nc1ncn([C@@H]2O[C@H](CO)[C@@H](O)[C@H]2O)c(=O)n1 [azacitidine] was run?
**A.** Its percent effect is -11.6%.

**Q.** Which percent effect does the source give for CNCCCC1c2ccccc2C=Cc2ccccc21 [protriptyline] here?
**A.** The percent effect was 2.59%.

**Q.** Which percent effect does the source give for CN1CC(=O)N2[C@H](c3ccc4c(c3)OCO4)c3[nH]c4ccccc4c3C[C@@H]2C1=O [tadalafil] here?
**A.** The percent effect was -1.27%.

**Q.** For COCCCC/C(=N\OCCN)c1ccc(C(F)(F)F)cc1 [fluvoxamine], which percent effect is on record?
**A.** Its percent effect is -1.88%.

**Q.** For Oc1ccc(Cl)cc1Sc1cc(Cl)ccc1O [fenticlor], which percent effect is on record?
**A.** Its percent effect is -3.42%.

**Q.** Which percent effect does the source give for CCc1[nH]c(=O)[nH]c1C(=O)c1ccncc1 [piroximone] here?
**A.** The percent effect was -1.99%.

**Q.** How did the percent effect turn out when COc1ccccc1N1CCN(CCCNc2cc(=O)n(C)c(=O)n2C)CC1 [urapidil] was run?
**A.** The percent effect was -1.59%.

**Q.** With CNC[C@H](O)[C@@H](O)[C@H](O)[C@H](O)CO as the molecule, how does the percent effect read?
**A.** The percent effect was -3.22%.
